# Data from the supplement of paper PMC8728848.
# The list shows a part of the results.
# B1: PX9961K-bvu-480-28-480 (Bacteroides vulgatus) (protein)
# chain: NKIPTTMAFRTVTDVDNAVNGLYDLMSGSGYYGAAMFAYGDMKGDDMQSSEESGVCNTCYMFNHRPNSLNAGSLWGRPFYILREAWNILNAIAEGKIESGDEKKLNALKGETMAVIALCQFDLTRCFGYPYTKDKGASLGAPLIDHLVGTYENPPRSTVAQAYDFIIETLEEAVTLMSEEKNNGRMNKYAARALLARIYLYHDDNRKAFDLADQLIKDADTSGSYALYPHEKYVAAWSVEAKFGSESFFEIANSVDDTPGRDSWGYLLNWYGYQKGFVTQKYAEQMLADPGDVRGHLLEENKYAGKTVWWLYKLRGTDLKTAPLECNNVVLRLSEVYLIAAEAGCKLGGDAAVQGLGYLNEIVKRGNPDNEVTMADYTLDRVLDERSKELVGEGHRFFDLLRNGKTIVRKGGYHLPSVDEEVDWDFYKCVLPIPEDQFIFSPEMEQNPGYPKN
# Key:
# Test in all cases: glycan array binding signal (z-score within array); higher = stronger binding
# Details in all cases: glycan notation: IUPAC condensed, linker removed
# [1] = molecular target: Neu5Ac(a2-3)Gal(b1-4)GlcNAc(b1-3)Gal(b1-4)GlcNAc(b1-3)Gal(b1-4)GlcNAc
# Outline: (§1)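 Columns mapping to the same glycan were averaged after glycan names were converted to IUPAC-condensed notation. The data come from 3228 arrays in the Consortium for Functional Glycomics database, limited to those with an available protein sequence. Binding is reported as a within-array Z-score averaged across arrays of one protein sequence and across linkers.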
# [2] = molecular target: Neu5Ac(a2-3)Gal(b1-4)GlcNAc(b1-3)Gal(b1-4)GlcNAc(b1-3)Gal(b1-4)GlcNAc(b1-2)Man(a1-3)[Neu5Ac(a2-3)Gal(b1-4)GlcNAc(b1-3)Gal(b1-4)GlcNAc(b1-3)Gal(b1-4)GlcNAc(b1-2)Man(a1-6)]GalNAc
# Outline: as §1
# [3] = molecular target: Neu5Ac(a2-3)Gal(b1-4)GlcNAc(b1-3)Gal(b1-4)GlcNAc(b1-3)GalNAc
# Outline: as §1
# [4] = molecular target: Neu5Ac(a2-3)Gal(b1-4)GlcNAc(b1-3)Gal(b1-4)GlcNAc(b1-3)[Neu5Ac(a2-3)Gal(b1-4)GlcNAc(b1-3)Gal(b1-4)GlcNAc(b1-6)]GalNAc
# Outline: as §1
# [5] = molecular target: Neu5Ac(a2-3)Gal(b1-4)GlcNAc(b1-3)Gal(b1-4)GlcNAc(b1-6)[Gal(b1-3)]GalNAc
# Outline: as §1
# [6] = molecular target: Neu5Ac(a2-3)Gal(b1-4)GlcNAc(b1-3)Gal(b1-4)[Fuc(a1-3)]GlcNAc
# Outline: as §1
# [7] = molecular target: Neu5Ac(a2-3)Gal(b1-4)GlcNAc(b1-3)GalNAc
# Outline: as §1
# [8] = molecular target: Neu5Ac(a2-3)Gal(b1-4)GlcNAc(b1-3)[Neu5Ac(a2-3)Gal(b1-4)GlcNAc(b1-6)]GalNAc
# Outline: as §1
# [9] = molecular target: Neu5Ac(a2-3)Gal(b1-4)GlcNAc(b1-6)GalNAc
# Outline: as §1
# [10] = molecular target: Neu5Ac(a2-3)Gal(b1-4)GlcNAc(b1-6)[Gal(b1-3)]GalNAc
# Outline: as §1
# [11] = molecular target: Neu5Ac(a2-3)Gal(b1-4)GlcNAc(b1-6)[Neu5Ac(a2-3)Gal(b1-3)]GalNAc
# Outline: as §1
# [12] = molecular target: Neu5Ac(a2-3)Gal(b1-4)GlcNAc6S
# Outline: as §1
# [13] = molecular target: Neu5Ac(a2-3)Gal(b1-4)[Fuc(a1-3)]GlcNAc
# Outline: as §1
# [14] = molecular target: Neu5Ac(a2-3)Gal(b1-4)[Fuc(a1-3)]GlcNAc(b1-2)Man
# Outline: as §1
# [15] = molecular target: Neu5Ac(a2-3)Gal(b1-4)[Fuc(a1-3)]GlcNAc(b1-3)Gal
# Outline: as §1
# [16] = molecular target: Neu5Ac(a2-3)Gal(b1-4)[Fuc(a1-3)]GlcNAc(b1-3)Gal(b1-4)GlcNAc
# Outline: as §1
# [17] = molecular target: Neu5Ac(a2-3)Gal(b1-4)[Fuc(a1-3)]GlcNAc(b1-3)Gal(b1-4)[Fuc(a1-3)]GlcNAc(b1-3)Gal(b1-4)[Fuc(a1-3)]GlcNAc
# Outline: as §1
# [18] = molecular target: Neu5Ac(a2-3)Gal(b1-4)[Fuc(a1-3)]GlcNAc(b1-3)GalNAc
# Outline: as §1
# [19] = molecular target: Neu5Ac(a2-3)Gal(b1-4)[Fuc(a1-3)]GlcNAc(b1-6)[Gal(b1-3)]GalNAc
# Outline: as §1
# [20] = molecular target: Neu5Ac(a2-3)Gal(b1-4)[Fuc(a1-3)]GlcNAc(b1-6)[Neu5Ac(a2-3)Gal(b1-3)]GalNAc
# Outline: as §1
# [21] = molecular target: Neu5Ac(a2-3)Gal(b1-4)[Fuc(a1-3)]GlcNAc6S
# Outline: as §1
# [22] = molecular target: Neu5Ac(a2-3)Gal6S(b1-4)GlcNAc
# Outline: as §1
# [23] = molecular target: Neu5Ac(a2-3)Gal6S(b1-4)[Fuc(a1-3)]GlcNAc
# Outline: as §1
# Neu5Ac(a2-3)GalNAc = molecular target: Neu5Ac(a2-3)GalNAc
# Outline: as §1
# [24] = molecular target: Neu5Ac(a2-3)GalNAc(b1-4)GlcNAc
# Outline: as §1
# [25] = molecular target: Neu5Ac(a2-3)[GalNAc(b1-4)]Gal(b1-4)Glc
# Outline: as §1
# [26] = molecular target: Neu5Ac(a2-3)[GalNAc(b1-4)]Gal(b1-4)GlcNAc
# Outline: as §1
# [27] = molecular target: Neu5Ac(a2-3)[GalNAc(b1-4)]Gal(b1-4)GlcNAc(b1-3)GalNAc
# Outline: as §1
# [28] = molecular target: Neu5Ac(a2-3)[Neu5Ac(a2-6)]GalNAc
# Outline: as §1
# Neu5Ac(a2-6)Gal = molecular target: Neu5Ac(a2-6)Gal
# Outline: as §1
# [29] = molecular target: Neu5Ac(a2-6)Gal(b1-3)GlcNAc(b1-3)[Gal(b1-4)GlcNAc(b1-6)]Gal(b1-4)Glc
# Outline: as §1
# Neu5Ac(a2-6)Gal(b1-4)Glc = molecular target: Neu5Ac(a2-6)Gal(b1-4)Glc
# Outline: as §1
# [30] = molecular target: Neu5Ac(a2-6)Gal(b1-4)GlcNAc
# Outline: as §1
# [31] = molecular target: Neu5Ac(a2-6)Gal(b1-4)GlcNAc(b1-2)Man
# Outline: as §1
# [32] = molecular target: Neu5Ac(a2-6)Gal(b1-4)GlcNAc(b1-2)Man(a1-3)Man(b1-4)GlcNAc(b1-4)GlcNAc
# Outline: as §1
# [33] = molecular target: Neu5Ac(a2-6)Gal(b1-4)GlcNAc(b1-2)Man(a1-3)[Gal(b1-4)GlcNAc(b1-2)Man(a1-6)]Man(b1-4)GlcNAc(b1-4)GlcNAc
# Outline: as §1
# [34] = molecular target: Neu5Ac(a2-6)Gal(b1-4)GlcNAc(b1-2)Man(a1-3)[GlcNAc(b1-2)Man(a1-6)]Man(b1-4)GlcNAc(b1-4)GlcNAc
# Outline: as §1
# [35] = molecular target: Neu5Ac(a2-6)Gal(b1-4)GlcNAc(b1-2)Man(a1-3)[GlcNAc(b1-4)][Neu5Ac(a2-6)Gal(b1-4)GlcNAc(b1-2)Man(a1-6)]Man(b1-4)GlcNAc(b1-4)GlcNAc
# Outline: as §1
binder,measurement,setting,value
B1,glycan array binding signal (z-score),[1],0.057
same,glycan array binding signal (z-score),[2],0.671
same,glycan array binding signal (z-score),[3],-0.68
same,glycan array binding signal (z-score),[4],0.587
same,glycan array binding signal (z-score),[5],-0.074
same,glycan array binding signal (z-score),[6],-0.06
same,glycan array binding signal (z-score),[7],0.147
same,glycan array binding signal (z-score),[8],-0.334
same,glycan array binding signal (z-score),[9],-0.742
same,glycan array binding signal (z-score),[10],-0.454
same,glycan array binding signal (z-score),[11],-0.435
same,glycan array binding signal (z-score),[12],-0.889
same,glycan array binding signal (z-score),[13],-0.188
same,glycan array binding signal (z-score),[14],-0.256
same,glycan array binding signal (z-score),[15],-1.04
same,glycan array binding signal (z-score),[16],-0.296
same,glycan array binding signal (z-score),[17],0.017
same,glycan array binding signal (z-score),[18],1.29
same,glycan array binding signal (z-score),[19],-0.803
same,glycan array binding signal (z-score),[20],-0.445
same,glycan array binding signal (z-score),[21],-0.021
same,glycan array binding signal (z-score),[22],-0.009
same,glycan array binding signal (z-score),[23],-0.737
same,glycan array binding signal (z-score),Neu5Ac(a2-3)GalNAc,-0.132
same,glycan array binding signal (z-score),[24],0.076
same,glycan array binding signal (z-score),[25],-0.122
same,glycan array binding signal (z-score),[26],-0.908
same,glycan array binding signal (z-score),[27],-0.375
same,glycan array binding signal (z-score),[28],-0.193
same,glycan array binding signal (z-score),Neu5Ac(a2-6)Gal,-0.091
same,glycan array binding signal (z-score),[29],-0.037
same,glycan array binding signal (z-score),Neu5Ac(a2-6)Gal(b1-4)Glc,-1.13
same,glycan array binding signal (z-score),[30],-0.65
same,glycan array binding signal (z-score),[31],-0.932
same,glycan array binding signal (z-score),[32],1.33
same,glycan array binding signal (z-score),[33],0.321
same,glycan array binding signal (z-score),[34],0.208
same,glycan array binding signal (z-score),[35],-0.331

# No new results follow: an excerpt of the list.
binder,measurement,setting,value
B1,glycan array binding signal (z-score),[14],-0.256
same,glycan array binding signal (z-score),[15],-1.04
same,glycan array binding signal (z-score),[16],-0.296
same,glycan array binding signal (z-score),[17],0.017
same,glycan array binding signal (z-score),[18],1.29
same,glycan array binding signal (z-score),[19],-0.803
same,glycan array binding signal (z-score),[20],-0.445
same,glycan array binding signal (z-score),[21],-0.021
